These are yes or no findings as the source states them, for the method shown. Binding seen in cells or lysates may run through a third protein. Some results given as binding are weak or reduced against the parent protein; the word gives no strength. For part of these data: Tags and fused reporters may be left off the sequences shown.

By UniProt entry, the sequences of proteins in these tests, tags left out.
UniProt Q13490: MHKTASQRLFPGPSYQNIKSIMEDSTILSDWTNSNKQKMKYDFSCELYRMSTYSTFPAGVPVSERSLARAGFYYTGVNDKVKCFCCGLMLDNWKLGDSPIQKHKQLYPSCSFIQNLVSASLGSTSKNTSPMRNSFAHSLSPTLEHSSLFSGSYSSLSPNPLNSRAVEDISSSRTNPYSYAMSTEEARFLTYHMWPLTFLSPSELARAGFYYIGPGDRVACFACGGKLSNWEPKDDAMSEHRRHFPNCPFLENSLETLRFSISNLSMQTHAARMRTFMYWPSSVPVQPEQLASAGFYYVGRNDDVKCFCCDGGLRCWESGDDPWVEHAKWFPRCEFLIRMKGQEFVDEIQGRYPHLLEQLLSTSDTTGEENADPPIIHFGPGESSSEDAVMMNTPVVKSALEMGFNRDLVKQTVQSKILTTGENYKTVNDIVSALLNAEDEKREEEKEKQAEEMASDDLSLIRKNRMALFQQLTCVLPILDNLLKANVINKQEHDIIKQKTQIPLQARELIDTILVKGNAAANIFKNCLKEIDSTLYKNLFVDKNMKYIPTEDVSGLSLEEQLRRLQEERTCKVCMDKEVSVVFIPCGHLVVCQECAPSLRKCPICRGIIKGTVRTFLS
UniProt Q99558: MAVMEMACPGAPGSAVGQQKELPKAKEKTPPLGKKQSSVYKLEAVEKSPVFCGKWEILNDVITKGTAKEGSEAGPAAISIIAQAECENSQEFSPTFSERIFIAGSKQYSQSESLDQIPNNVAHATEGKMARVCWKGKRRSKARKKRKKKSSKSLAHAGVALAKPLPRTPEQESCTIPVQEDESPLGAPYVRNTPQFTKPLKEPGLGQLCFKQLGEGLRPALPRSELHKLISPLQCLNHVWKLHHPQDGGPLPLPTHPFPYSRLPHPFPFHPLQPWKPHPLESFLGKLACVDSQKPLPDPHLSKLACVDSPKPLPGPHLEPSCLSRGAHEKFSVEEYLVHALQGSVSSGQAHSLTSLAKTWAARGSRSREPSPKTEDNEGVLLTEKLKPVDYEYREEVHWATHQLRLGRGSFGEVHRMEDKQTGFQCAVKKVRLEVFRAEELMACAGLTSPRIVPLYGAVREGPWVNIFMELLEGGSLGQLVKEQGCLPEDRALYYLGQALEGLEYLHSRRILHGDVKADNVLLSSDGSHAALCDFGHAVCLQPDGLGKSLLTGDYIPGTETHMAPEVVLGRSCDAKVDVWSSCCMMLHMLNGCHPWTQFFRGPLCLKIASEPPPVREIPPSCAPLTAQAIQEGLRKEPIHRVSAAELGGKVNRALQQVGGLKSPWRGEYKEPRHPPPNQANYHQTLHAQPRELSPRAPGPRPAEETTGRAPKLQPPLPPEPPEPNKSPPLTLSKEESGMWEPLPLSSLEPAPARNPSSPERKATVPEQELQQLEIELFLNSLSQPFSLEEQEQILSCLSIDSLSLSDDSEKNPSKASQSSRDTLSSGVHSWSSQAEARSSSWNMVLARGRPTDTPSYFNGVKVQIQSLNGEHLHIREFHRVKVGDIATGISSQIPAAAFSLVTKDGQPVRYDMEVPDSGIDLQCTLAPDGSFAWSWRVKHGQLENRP
UniProt Q13489: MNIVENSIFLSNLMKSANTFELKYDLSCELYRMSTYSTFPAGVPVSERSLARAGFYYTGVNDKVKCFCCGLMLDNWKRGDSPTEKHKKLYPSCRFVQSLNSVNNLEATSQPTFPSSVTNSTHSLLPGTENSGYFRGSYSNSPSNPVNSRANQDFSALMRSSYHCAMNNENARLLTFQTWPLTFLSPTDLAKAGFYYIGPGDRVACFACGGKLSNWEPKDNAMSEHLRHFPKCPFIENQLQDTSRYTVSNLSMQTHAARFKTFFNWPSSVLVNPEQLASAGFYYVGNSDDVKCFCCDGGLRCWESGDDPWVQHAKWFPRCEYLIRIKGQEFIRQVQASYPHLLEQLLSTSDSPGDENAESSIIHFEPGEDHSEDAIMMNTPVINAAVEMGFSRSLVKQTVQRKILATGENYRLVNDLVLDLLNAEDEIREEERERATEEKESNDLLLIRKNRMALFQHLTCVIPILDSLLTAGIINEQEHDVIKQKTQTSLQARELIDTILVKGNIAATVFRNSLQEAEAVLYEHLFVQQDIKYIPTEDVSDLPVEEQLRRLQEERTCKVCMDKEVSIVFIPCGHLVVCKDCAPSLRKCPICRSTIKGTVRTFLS

The target of assay [1] is T1, endogenous A20 (human (endogenous in MDA-MB-231)) (UniProt P21580).
T1 sequence: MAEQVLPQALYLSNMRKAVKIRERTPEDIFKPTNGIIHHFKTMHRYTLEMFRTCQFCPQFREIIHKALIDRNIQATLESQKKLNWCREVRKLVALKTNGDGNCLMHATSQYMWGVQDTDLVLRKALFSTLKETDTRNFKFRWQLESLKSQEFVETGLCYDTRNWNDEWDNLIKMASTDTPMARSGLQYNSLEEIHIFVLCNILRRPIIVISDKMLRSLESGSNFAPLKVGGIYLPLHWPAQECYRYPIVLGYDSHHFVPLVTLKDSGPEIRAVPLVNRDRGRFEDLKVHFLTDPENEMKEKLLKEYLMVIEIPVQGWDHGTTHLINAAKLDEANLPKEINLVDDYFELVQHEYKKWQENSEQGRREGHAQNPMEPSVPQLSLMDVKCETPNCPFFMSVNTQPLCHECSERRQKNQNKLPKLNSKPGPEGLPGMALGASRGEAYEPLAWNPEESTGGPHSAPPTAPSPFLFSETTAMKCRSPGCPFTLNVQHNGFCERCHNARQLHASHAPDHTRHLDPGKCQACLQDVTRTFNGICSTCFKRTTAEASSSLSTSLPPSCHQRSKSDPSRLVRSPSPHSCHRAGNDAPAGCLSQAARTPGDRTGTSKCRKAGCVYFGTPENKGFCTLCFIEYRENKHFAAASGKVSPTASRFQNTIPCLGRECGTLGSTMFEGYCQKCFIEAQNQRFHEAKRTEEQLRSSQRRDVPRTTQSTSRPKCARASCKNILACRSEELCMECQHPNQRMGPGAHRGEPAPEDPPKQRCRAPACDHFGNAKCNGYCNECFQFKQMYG
In words: co-IP; endogenous A20 immunoprecipitated with anti-A20 (control anti-myc) and protein G Sepharose from MDA-MB-231 lysates (TNE buffer), cells untreated or treated with LTα1β2 (500 ng/ml) for 3 hr; immunoblot. In general terms: In western blotting, separated proteins are transferred to a membrane and probed.

Assay [2] deals with TAP-tagged cIAP1 (human) (UniProt Q13490). In words: pull-down; TAP-cIAP1 or deletion mutants precipitated from HEK293T lysates on Strep-Tactin beads (partially purified), beads incubated with 0.5 μg GST-ZnF5-7 in TNE buffer with 0.5 mM DTT and 0.1 mg/ml BSA for 3 hr; immunoblot; only the binder purified.

In the case of “NF-κB-inducing kinase (endogenous) (from UniProt Q99558 1-947)”, the binding entry in assay [1] is “no binding”.
The same measure, in the same setting: with “cellular inhibitor of apoptosis protein 2 (endogenous) (from UniProt Q13489 1-604)” the entry was “binds”.

B1: GST-A20-ZnF5-7 (domain or fragment, human, UniProt P21580 647-790, looked up)
chain: TASRFQNTIPCLGRECGTLGSTMFEGYCQKCFIEAQNQRFHEAKRTEEQLRSSQRRDVPRTTQSTSRPKCARASCKNILACRSEELCMECQHPNQRMGPGAHRGEPAPEDPPKQRCRAPACDHFGNAKCNGYCNECFQFKQMYG
notes: A20, human, fragment aa 647-790 encompassing ZnF5 to ZnF7; cloned in pGEX-6P-1; also called GST-ZnF5-7; source: E. coli DH5α, purified (Glutathione Sepharose 4B), dialyzed with PBS
Turning to B1, the binding entry in assay [2] is listed as “binds”.

Source of the values: publication PMC3764444, “Involvement of A20 in the molecular switch that activates the non-canonical NF-кB pathway” (Scientific Reports, 2013).
